According to the supplement of paper PMC10849652:
The other results are listed elsewhere or left out.

Amino acid sequences for entries named in this document (tags omitted). A change or cut given only in a name is not applied to a line headed by its entry.
UniProt Q86UA6: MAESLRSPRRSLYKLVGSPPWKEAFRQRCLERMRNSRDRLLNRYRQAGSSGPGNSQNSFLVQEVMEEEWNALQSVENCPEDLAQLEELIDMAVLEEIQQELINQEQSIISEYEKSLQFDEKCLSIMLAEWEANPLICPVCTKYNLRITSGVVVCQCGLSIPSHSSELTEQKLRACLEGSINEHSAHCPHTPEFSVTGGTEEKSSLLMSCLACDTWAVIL
UniProt Q96EP0: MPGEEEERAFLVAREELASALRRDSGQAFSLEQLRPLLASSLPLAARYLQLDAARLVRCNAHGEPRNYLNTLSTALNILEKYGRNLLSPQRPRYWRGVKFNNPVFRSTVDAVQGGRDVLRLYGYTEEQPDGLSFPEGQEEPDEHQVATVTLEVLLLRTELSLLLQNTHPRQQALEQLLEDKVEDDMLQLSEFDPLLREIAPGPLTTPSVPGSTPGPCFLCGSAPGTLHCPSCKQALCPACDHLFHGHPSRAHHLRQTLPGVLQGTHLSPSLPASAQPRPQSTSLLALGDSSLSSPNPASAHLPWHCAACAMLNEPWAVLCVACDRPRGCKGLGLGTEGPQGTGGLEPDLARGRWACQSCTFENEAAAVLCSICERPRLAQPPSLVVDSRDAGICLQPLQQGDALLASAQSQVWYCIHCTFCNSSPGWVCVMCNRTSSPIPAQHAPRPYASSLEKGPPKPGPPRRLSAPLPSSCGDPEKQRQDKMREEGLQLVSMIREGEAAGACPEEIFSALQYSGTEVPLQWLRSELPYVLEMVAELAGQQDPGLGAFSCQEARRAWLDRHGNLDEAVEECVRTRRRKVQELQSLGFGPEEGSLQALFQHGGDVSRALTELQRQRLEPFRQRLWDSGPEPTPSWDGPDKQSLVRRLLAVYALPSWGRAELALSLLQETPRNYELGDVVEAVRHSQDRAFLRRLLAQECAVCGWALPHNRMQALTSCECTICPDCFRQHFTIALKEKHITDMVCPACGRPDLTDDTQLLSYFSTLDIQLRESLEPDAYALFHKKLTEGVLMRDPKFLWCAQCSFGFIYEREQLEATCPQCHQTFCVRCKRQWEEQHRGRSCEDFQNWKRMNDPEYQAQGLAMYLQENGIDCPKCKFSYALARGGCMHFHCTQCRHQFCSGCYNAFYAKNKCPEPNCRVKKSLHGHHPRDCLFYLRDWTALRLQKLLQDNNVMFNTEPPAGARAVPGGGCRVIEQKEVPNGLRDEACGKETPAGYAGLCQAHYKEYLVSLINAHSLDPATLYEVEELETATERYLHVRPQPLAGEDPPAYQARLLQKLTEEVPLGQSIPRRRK
UniProt Q96CM3: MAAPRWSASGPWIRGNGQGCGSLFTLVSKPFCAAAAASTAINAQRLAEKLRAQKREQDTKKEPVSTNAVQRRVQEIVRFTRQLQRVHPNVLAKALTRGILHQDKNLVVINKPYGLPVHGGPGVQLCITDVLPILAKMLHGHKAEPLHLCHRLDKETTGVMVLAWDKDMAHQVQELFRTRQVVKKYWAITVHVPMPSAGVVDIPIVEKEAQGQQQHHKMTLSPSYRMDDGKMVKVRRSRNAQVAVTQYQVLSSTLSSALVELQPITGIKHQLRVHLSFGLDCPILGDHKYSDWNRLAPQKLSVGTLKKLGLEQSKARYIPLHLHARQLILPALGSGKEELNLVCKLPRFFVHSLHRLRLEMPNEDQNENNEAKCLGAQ
UniProt Q9NYV6: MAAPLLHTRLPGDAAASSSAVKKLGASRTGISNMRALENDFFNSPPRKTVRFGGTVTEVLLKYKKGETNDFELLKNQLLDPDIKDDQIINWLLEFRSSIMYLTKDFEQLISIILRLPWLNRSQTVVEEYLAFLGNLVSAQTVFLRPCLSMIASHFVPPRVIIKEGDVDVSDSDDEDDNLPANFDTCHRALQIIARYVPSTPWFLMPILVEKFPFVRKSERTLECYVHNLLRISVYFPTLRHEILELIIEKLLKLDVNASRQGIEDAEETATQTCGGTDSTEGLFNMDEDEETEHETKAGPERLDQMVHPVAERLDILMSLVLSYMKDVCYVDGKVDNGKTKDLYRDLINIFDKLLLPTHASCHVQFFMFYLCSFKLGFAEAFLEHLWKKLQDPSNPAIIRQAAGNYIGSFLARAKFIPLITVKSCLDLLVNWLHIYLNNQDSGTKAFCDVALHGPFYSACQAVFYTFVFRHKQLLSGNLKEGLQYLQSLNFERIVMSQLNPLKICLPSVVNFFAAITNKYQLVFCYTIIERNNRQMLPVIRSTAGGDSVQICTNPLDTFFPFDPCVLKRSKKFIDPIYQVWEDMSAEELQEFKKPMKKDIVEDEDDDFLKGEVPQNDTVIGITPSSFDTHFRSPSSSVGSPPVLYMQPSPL
UniProt O75582, whole entry, looked up: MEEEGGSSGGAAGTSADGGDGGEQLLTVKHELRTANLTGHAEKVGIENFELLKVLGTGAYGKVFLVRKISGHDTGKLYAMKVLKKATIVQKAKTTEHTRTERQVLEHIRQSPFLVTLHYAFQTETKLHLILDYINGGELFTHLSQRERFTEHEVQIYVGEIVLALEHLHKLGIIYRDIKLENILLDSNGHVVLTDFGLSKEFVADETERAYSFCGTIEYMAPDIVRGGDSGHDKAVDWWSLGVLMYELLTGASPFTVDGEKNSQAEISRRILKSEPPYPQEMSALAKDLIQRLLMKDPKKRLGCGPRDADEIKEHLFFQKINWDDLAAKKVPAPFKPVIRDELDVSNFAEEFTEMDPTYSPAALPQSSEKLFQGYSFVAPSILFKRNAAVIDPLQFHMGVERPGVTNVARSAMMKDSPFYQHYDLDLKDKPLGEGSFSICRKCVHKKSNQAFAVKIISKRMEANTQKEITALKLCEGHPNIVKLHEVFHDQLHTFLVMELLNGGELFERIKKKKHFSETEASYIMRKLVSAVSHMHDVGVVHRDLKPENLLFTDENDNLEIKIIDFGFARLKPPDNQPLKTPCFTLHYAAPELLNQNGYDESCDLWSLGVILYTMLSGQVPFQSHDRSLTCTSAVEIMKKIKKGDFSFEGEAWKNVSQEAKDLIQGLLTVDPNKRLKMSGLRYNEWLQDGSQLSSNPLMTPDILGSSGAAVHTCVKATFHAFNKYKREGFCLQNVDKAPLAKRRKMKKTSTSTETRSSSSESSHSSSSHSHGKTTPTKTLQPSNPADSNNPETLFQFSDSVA
UniProt Q9H4P4: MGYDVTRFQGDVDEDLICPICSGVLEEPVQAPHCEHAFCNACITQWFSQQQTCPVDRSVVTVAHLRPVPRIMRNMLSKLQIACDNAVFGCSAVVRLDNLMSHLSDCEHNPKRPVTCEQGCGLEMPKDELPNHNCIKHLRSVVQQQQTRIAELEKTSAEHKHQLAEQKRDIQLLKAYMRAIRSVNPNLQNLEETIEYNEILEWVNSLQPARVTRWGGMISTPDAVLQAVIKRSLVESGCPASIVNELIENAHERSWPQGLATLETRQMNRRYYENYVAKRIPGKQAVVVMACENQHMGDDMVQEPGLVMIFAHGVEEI
UniProt Q5VT52: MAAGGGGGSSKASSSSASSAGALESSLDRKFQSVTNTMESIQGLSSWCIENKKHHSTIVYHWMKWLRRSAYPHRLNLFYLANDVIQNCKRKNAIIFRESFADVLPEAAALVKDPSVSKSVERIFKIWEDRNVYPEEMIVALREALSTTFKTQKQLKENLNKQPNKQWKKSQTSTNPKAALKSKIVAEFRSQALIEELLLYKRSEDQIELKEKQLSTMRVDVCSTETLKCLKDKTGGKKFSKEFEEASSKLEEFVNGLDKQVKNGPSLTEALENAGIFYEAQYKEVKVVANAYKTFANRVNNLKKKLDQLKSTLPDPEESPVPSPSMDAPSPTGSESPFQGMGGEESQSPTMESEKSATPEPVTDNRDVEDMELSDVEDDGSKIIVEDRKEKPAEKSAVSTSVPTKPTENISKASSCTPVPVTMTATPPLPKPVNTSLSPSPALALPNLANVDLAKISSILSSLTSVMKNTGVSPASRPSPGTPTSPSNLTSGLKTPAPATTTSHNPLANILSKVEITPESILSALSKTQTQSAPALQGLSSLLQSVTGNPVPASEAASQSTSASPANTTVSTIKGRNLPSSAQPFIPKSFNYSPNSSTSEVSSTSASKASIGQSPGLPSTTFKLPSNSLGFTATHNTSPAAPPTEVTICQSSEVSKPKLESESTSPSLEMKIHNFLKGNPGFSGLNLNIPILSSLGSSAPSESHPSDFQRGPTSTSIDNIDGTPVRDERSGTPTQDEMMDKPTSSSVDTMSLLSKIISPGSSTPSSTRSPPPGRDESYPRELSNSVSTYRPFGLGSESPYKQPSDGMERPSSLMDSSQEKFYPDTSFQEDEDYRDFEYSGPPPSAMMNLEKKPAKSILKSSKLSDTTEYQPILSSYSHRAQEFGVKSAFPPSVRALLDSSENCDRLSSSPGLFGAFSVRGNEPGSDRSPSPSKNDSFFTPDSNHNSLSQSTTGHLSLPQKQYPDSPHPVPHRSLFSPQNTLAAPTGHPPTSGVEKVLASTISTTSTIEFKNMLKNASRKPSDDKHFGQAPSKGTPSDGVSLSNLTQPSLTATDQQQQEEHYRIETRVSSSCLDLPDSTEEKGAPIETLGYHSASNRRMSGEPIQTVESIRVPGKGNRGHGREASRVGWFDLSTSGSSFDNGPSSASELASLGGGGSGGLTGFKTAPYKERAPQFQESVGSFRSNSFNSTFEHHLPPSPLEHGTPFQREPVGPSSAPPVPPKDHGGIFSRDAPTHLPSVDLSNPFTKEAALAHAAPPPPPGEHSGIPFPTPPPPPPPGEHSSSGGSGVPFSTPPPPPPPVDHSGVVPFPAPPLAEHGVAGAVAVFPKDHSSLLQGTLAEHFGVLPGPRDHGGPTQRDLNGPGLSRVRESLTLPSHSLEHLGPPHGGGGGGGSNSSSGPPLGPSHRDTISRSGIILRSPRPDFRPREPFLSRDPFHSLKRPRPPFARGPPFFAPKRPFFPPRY
UniProt O75116: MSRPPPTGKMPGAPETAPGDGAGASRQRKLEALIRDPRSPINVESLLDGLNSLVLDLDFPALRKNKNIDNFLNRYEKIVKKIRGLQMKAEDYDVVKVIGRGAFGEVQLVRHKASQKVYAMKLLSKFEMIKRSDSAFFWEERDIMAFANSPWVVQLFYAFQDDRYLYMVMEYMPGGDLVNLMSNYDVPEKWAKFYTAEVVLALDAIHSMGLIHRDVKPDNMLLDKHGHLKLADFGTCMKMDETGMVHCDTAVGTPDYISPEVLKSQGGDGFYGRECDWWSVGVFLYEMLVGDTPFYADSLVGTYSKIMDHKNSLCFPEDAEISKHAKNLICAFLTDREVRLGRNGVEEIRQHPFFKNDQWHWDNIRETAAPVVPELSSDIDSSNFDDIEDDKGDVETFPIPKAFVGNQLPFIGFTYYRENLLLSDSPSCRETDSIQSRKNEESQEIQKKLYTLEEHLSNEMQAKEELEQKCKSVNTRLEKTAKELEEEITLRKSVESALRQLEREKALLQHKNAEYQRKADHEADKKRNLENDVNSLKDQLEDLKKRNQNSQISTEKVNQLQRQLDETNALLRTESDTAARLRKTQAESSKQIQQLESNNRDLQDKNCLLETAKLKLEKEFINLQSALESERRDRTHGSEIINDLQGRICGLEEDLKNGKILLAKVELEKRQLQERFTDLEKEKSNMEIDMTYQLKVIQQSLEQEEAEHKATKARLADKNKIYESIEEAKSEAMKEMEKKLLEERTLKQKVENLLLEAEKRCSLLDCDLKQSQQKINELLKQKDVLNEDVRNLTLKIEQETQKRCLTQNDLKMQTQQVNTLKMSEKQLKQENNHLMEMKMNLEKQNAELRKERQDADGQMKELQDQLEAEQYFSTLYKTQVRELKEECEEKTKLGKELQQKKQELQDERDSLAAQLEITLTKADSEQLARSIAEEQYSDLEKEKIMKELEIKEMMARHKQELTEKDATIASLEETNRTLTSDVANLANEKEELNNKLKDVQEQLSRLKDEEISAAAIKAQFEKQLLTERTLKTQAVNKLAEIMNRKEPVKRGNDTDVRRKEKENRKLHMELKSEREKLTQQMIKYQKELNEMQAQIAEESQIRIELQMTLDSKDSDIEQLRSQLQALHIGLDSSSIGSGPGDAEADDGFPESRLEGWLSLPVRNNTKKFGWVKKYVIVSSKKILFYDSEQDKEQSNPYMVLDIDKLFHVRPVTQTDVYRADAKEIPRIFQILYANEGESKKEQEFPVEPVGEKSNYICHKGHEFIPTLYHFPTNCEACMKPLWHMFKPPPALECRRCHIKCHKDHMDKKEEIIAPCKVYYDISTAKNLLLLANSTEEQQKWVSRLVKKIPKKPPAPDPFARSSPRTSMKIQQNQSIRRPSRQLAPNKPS
UniProt P78317: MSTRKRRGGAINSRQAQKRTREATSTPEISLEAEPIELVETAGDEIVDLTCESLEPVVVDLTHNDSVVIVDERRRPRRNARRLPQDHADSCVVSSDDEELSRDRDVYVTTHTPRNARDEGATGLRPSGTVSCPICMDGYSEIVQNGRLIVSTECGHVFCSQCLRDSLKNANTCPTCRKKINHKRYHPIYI

How the values were obtained:
Test in all cases: log2 fold change, soluble protein after heating vs DMSO (PISA); higher = thermal stabilisation; K562 cells, 10 uM, 30 min; active = over 0.2 and 3.5 SD of the protein, either way, in both replicates (recomputed)
[1] = compound: CC[C@@H]1C(=O)N(C)c2cnc(Nc3ccc(C(=O)N[C@H]4CC[C@H](N5CCN(CC6CC6)CC5)CC4)cc3OC)nc2N1C(C)C [volasertib]
Method in brief: (§1)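 K562 cells at 2×10^6 cells/mL were exposed to 10 μM compound for 30 min, then aliquots were heated for 3 min across 48°C-58°C, pooled, and extracted in PBS containing 0.5% NP-40 at 4°C. The supernatant after 21,000xg for 90 min was taken as soluble protein and measured by TMTpro 16plex LC-MS/MS with channel sums equalised. Thermal stability is reported relative to control samples, with values from duplicates. Fold changes are given on a log2 scale.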

[2] = compound: CC[C@H](C)N1C=C(C2=C(C=C(C=C21)C3=CN=C(C=C3)N4CCNCC4)C(=O)NCC5=C(C=C(NC5=O)C)C)C
Method in brief: as §1

[3] = compound: CN1CCc2c(c3ccccc3n2Cc2ccc(C(=O)NO)cc2)C1 [Tubastatin A]
Method in brief: as §1

[4] = compound: CC[C@H](C)[C@@H](C(=O)N[C@@H]([C@@H](C)O)C(=O)N[C@@H](CC(C)C)C(=O)[C@]1(CO1)C)NC(=O)[C@H]([C@@H](C)CC)N(C)C(=O)C [epoxomicin]
Method in brief: as §1

[5] = compound: CN(C)CC(=O)Nc1ccc2[nH]c(=O)c3ccccc3c2c1
Method in brief: as §1

[6] = compound: CN1C2=C(C3=C1C(=O)N(N=C3)CC4=CC(=CC=C4)N)SC(=C2)S(=O)C
Method in brief: as §1

[7] = compound: CN1CCN(CCOc2cc(OC3CCOCC3)c3c(Nc4c(Cl)ccc5c4OCO5)ncnc3c2)CC1 [saracatinib]
Method in brief: as §1

[8] = compound: CN1CCN(c2nc(C3=C(c4c[nH]c5ccccc45)C(=O)NC3=O)c3ccccc3n2)CC1 [sotrastaurin]
Method in brief: as §1

[9] = compound: CNC(=O)c1ccc(Nc2ncc(C(F)(F)F)c(NCc3nccnc3N(C)S(C)(=O)=O)n2)cc1 [defactinib]
Method in brief: as §1

[10] = compound: CNc1nc(-c2ccc3c(N)n[nH]c3c2)cc(N2C[C@@H](C(=O)NC3CCCCC3)CC[C@H]2C)n1
Method in brief: as §1

[11] = compound: COC(=O)[C@H](CCSC)NC(=O)C1=C(C=C(C=C1)NC[C@H](CS)N)C2=CC=CC=C2
Method in brief: as §1

[12] = compound: CCn1c(C(=O)N(C2CC2)C2CC2)cc2c3c(ncn3C)c(Nc3cc(C)n(C)n3)nc21
Method in brief: as §1

[13] = compound: CN(CCOC1=CC=C(C=C1)C[C@H]2C(=O)NC(=O)S2)C3=CC=CC=N3 (racemic) [rosiglitazone]
Method in brief: as §1

[14] = compound: CN1CC[C@H](c2c(O)cc(O)c3c(=O)cc(-c4ccccc4Cl)oc23)[C@H](O)C1 [alvocidib]
Method in brief: as §1

[15] = compound: CNC(=O)C1=CC=CC=C1NC2=NC(=NC=C2Cl)NC3=C(C=C(C=C3)N4CCOCC4)OC
Method in brief: as §1

[16] = compound: CCn1cc(-c2ccnc3[nH]c(-c4cccc(CN(C)C)c4)cc23)c(-c2ccc(NC(=O)N(C)C)cc2)n1
Method in brief: as §1

[17] = compound: CN1CCC(CNc2ccc3ncc(-c4cccc(OC(F)(F)F)c4)n3n2)CC1
Method in brief: as §1

[18] = compound: CC[C@@H]1C(=O)N(C)c2cnc(Nc3ccc(C(=O)NC4CCN(C)CC4)cc3OC)nc2N1C1CCCC1
Method in brief: as §1

[19] = compound: CNCc1ccc(-c2[nH]c3cc(F)cc4c3c2CCNC4=O)cc1 [rucaparib]
Method in brief: as §1

[20] = compound: COC(=O)N[C@@H](C)CNc1nccc(-c2cn(C(C)C)nc2-c2cc(Cl)cc(NS(C)(=O)=O)c2F)n1 [encorafenib]
Method in brief: as §1

Measured: log2 fold change

RPS19 (UniProt M0R2L9)
inactive: [1] 0.492 | [2] -0.256 | [3] -0.186

RPAIN isoform 8 (UniProt Q86UA6)
active: [1] -0.718
inactive: [4] -0.118 | [5] -0.076 | [6] -0.044 | [7] -0.036 | [8] -0.09 | [3] -0.016 | [9] -0.231 | [10] -0.082 | [11] 0.094

RNF40 (UniProt O75150)
inactive: [12] 0.182 | [5] 0.141 | [13] 0.392 | [6] 0.046 | [7] -0.2 | [8] -0.344 | [14] -0.232 | [3] 0.264 | [15] -0.11 | [9] -0.017 | [10] 0.188 | [11] -0.011

RNF31 (UniProt Q96EP0)
inactive: [2] 0.147 | [4] 0.022 | [12] -0.115 | [16] -0.14 | [5] -0.002 | [17] 0.161 | [8] -0.303 | [3] -0.22 | [15] -0.015 | [9] -0.027 | [11] -0.036

RPS21 (UniProt P63220)
active: [1] 0.238
inactive: [18] 0.089 | [2] -0.04 | [4] 0.028 | [16] 0.055 | [5] -0.045 | [6] -0.004 | [17] 0.073 | [7] -0.017 | [8] 0.005 | [3] 0.246 | [15] 0.039 | [9] 0.052 | [19] -0.039 | [10] -0.001 | [20] 0.021 | [11] 0.027

RPUSD4 (UniProt Q96CM3)
inactive: [1] 0.365 | [4] -0.068 | [16] -0.037 | [17] 0.07 | [8] -0.037 | [14] -0.043 | [3] 0.081

RPRD1A (UniProt Q96P16)
inactive: [4] 0.15 | [12] -0.034 | [16] -0.013 | [5] 0.237 | [6] 0.058 | [17] -0.025 | [7] -0.259 | [8] 0.058 | [3] 0.106 | [15] -0.101 | [9] -0.179 | [10] -0.054 | [11] 0.043

RPS4X (UniProt P62701)
inactive: [18] 0.173 | [1] 0.419 | [2] 0.056 | [4] -0.22 | [16] 0.108 | [5] -0.089 | [6] 0.177 | [17] 0.148 | [7] -0.164 | [8] -0.017 | [3] 0.123 | [15] 0.063 | [9] 0.302 | [19] 0.185 | [10] 0.089 | [20] 0.08 | [11] 0.014

RPS15 (UniProt P62841)
inactive: [18] 0.2 | [1] 0.294 | [2] -0.017 | [4] -0.056 | [16] 0.061 | [5] -0.099 | [6] 0.164 | [17] 0.02 | [7] -0.02 | [8] 0.07 | [3] 0.087 | [15] 0.04 | [9] 0.233 | [19] 0.226 | [10] 0.061 | [20] 0.028 | [11] 0.06

RPS7, A0A2R8Y623
inactive: [18] 0.503 | [2] 0.171 | [12] 0.007 | [5] 0.008 | [13] 0.111 | [8] 0.374 | [3] 0.136 | [15] -0.214 | [9] -0.162 | [19] -0.098 | [20] -0.421 | [11] -0.294

RPS3 (UniProt E9PJN9)
inactive: [18] 0.098 | [16] -0.125 | [6] 0.088 | [17] 0.089 | [7] -0.069 | [3] 0.105 | [19] 0.064 | [10] -0.028 | [20] 0.052

RRN3 (UniProt Q9NYV6)
inactive: [18] 0.084 | [1] 0.12 | [4] -0.124 | [12] -0.011 | [16] -0.073 | [17] 0.461 | [15] -0.158 | [19] 0.144 | [20] -0.004

RPS6KA5 (UniProt O75582)
inactive: [18] 0.024 | [1] -0.529 | [4] 0.048 | [15] 0.083 | [19] 0.135 | [20] 0.148

RNF41 (UniProt Q9H4P4)
inactive: [18] 0.044 | [19] -0.087 | [20] -0.016

RPLP0 (UniProt F8VWV4)
inactive: [4] -0.171 | [8] 0.177 | [14] 0.15 | [3] 0.101

RPRD2 (UniProt Q5VT52)
inactive: [1] -0.333 | [4] 0.004 | [12] -0.269 | [5] 0.128 | [13] 0.261 | [3] 0.252 | [15] 0.062 | [9] -0.14 | [11] -0.142

ROCK2 (UniProt O75116)
inactive: [18] -0.033 | [1] -0.139 | [2] -0.009 | [4] 0.063 | [16] -0.178 | [5] 0.007 | [6] -0.02 | [17] -0.042 | [7] 0.02 | [8] -0.096 | [3] -0.001 | [15] -0.062 | [9] -0.097 | [19] -0.027 | [10] 0.212 | [20] 0.042 | [11] -0.003

ROGDI (UniProt Q9GZN7)
inactive: [18] 0.001 | [16] 0.046 | [17] -0.286 | [14] 0.061 | [19] 0.183 | [20] 0.05

RPS6KA3 (UniProt P51812)
inactive: [1] -0.174 | [2] 0.065 | [4] 0.027 | [16] -0.049 | [5] 0.016 | [6] -0.043 | [17] -0.192 | [7] 0.021 | [8] -0.049 | [3] 0.019 | [9] -0.148 | [19] 0.006 | [10] -0.049 | [20] -0.01 | [11] -0.027

RNF4 (UniProt P78317)
inactive: [1] -0.059 | [2] -0.018 | [4] 0.158 | [12] -0.682 | [13] 0.001 | [8] -0.091 | [3] 0.05 | [15] -0.09

RPGR (UniProt Q92834)
inactive: [4] 0.018 | [3] -0.115
